Source: doi:10.1101/344275
No constants are given. Whether binding was seen depends on the method and setting. Binding seen in cells or lysates may run through a third protein. Some binding calls cover weakened binding; strength is not graded here.

The chains behind the UniProt entries cited, without tags or fusion partners.
UniProt Q7Z6Z7: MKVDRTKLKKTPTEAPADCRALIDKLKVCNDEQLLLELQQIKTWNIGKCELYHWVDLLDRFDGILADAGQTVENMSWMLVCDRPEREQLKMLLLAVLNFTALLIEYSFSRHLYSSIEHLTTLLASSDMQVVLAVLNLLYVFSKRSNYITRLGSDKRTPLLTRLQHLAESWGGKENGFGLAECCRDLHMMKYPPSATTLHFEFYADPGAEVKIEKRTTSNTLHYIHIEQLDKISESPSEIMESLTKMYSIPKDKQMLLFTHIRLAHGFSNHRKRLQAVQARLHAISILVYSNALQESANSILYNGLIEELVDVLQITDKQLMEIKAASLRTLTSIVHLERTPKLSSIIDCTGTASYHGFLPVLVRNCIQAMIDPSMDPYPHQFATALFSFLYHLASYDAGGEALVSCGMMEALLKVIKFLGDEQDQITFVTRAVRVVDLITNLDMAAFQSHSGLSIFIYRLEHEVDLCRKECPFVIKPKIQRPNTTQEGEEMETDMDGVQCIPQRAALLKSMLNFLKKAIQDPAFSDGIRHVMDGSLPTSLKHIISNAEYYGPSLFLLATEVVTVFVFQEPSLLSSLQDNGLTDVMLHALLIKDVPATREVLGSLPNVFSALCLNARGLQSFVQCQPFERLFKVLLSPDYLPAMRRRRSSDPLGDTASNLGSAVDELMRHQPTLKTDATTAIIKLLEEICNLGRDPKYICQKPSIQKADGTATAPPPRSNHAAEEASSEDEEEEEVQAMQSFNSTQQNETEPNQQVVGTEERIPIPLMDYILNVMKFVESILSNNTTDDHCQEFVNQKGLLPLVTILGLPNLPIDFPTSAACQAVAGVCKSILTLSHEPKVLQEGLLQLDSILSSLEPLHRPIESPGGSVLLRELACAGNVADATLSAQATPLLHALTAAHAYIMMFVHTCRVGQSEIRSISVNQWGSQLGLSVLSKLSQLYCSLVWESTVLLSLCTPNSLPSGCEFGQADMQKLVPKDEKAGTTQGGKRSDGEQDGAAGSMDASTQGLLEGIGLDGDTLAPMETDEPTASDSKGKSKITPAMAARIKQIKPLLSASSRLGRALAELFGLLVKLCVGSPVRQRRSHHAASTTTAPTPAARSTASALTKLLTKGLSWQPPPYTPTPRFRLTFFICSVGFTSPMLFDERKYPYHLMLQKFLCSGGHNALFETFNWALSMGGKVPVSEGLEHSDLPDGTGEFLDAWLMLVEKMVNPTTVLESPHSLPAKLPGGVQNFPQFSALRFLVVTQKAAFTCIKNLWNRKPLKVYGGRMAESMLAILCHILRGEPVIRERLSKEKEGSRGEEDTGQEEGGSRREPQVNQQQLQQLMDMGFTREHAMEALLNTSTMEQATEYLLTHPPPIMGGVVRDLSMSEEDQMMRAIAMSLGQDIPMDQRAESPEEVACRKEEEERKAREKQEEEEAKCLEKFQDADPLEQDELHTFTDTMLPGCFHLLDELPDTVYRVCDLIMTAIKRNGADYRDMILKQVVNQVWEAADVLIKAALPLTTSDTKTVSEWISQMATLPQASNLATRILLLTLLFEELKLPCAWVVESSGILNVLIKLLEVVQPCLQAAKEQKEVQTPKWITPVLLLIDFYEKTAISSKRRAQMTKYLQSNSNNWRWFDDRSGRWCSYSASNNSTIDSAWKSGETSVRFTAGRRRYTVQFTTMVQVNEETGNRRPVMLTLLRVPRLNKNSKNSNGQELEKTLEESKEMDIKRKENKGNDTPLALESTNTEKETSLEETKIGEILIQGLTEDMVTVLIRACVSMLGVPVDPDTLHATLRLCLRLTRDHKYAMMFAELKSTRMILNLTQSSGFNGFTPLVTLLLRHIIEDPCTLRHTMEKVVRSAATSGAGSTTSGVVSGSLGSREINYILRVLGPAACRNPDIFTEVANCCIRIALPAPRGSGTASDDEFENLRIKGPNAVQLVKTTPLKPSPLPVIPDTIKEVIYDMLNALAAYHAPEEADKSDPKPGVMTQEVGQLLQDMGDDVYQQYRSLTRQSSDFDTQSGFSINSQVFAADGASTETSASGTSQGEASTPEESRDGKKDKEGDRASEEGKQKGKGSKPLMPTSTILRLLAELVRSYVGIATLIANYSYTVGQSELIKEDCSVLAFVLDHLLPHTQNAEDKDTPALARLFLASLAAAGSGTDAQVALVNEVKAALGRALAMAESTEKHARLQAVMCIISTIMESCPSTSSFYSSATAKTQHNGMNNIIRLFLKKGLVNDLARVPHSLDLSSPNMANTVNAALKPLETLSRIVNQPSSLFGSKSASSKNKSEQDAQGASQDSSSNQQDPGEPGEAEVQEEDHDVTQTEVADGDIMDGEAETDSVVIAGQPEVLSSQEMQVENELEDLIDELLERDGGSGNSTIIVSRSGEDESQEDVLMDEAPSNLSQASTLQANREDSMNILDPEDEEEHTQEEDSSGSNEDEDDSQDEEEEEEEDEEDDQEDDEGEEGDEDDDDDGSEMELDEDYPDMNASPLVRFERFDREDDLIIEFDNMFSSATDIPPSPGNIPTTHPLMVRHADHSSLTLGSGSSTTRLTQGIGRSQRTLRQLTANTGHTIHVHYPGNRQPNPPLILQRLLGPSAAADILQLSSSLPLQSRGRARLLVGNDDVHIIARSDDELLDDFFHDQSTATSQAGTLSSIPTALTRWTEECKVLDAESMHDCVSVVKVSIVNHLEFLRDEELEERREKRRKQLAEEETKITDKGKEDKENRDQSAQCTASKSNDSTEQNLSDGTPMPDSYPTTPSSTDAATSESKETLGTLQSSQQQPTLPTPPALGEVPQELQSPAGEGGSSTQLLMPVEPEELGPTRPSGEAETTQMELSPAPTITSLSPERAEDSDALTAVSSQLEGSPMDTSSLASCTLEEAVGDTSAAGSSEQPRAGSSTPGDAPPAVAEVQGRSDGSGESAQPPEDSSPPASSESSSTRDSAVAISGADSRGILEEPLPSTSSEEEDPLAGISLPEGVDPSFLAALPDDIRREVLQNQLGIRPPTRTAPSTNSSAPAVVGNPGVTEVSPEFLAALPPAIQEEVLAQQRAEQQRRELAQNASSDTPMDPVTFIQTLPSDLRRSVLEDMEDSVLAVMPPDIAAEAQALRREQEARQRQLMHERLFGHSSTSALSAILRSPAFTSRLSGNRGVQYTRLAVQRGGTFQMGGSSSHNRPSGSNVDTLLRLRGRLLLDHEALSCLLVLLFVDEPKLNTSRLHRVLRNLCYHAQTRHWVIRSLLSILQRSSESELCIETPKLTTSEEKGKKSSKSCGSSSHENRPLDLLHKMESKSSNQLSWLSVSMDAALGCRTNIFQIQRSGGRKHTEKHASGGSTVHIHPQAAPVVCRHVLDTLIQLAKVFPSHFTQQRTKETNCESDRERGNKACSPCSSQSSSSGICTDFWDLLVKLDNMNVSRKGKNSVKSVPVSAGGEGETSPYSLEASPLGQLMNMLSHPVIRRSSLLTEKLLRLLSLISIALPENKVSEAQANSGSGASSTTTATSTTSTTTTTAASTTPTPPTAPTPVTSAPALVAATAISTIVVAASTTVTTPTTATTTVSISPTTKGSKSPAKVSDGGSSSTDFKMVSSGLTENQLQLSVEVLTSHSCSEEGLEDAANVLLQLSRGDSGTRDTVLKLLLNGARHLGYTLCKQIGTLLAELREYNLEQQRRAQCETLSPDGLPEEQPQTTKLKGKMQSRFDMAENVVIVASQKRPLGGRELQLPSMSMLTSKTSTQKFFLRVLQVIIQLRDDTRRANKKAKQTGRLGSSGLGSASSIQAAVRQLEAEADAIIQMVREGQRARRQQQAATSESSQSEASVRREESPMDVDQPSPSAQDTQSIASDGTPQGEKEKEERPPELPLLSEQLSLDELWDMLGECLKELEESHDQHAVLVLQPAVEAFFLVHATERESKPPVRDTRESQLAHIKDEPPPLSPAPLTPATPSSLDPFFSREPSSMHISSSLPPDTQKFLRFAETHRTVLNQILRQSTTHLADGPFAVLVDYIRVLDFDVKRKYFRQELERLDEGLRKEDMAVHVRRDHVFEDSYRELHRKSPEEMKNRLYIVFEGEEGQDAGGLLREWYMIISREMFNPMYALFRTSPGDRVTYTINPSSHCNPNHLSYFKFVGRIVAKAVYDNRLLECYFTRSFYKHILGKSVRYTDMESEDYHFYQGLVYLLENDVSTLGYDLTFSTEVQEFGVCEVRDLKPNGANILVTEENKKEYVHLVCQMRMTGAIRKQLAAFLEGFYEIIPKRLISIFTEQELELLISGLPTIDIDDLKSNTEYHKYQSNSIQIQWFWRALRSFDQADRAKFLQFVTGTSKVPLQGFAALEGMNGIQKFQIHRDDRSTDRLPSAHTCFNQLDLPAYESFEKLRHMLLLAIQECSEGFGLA
UniProt P35226: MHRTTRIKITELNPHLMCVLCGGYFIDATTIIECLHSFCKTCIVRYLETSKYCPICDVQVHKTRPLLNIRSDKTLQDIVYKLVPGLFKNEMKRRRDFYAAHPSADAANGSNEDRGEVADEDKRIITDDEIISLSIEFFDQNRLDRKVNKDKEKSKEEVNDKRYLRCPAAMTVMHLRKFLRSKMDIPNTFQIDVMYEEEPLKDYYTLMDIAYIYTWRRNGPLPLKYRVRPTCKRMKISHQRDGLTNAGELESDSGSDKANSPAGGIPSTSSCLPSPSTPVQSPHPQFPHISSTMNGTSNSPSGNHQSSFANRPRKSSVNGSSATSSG

Legend:
[1] = biological target: HUWE1 (human (endogenous in A549)) (UniProt Q7Z6Z7); experiment: co-IP
[2] = biological target: BMI1-HA (BMI1 and HA-tag fusion protein) (UniProt P35226); experiment: co-IP

## BMI1-HA (BMI1 and HA-tag fusion protein) (from UniProt P35226 1-326)
[1]
  binding: binds

## endogenous BMI1 (from UniProt P35226 1-326)
[1]
  binding: binds

## HUWE1 (from UniProt Q7Z6Z7 1-4374) (enzyme)
[2]
  binding: binds
